Measured values taken from paper PMC4029728.
Results are given in words; binding and its absence hold for the method and conditions named. Some binding calls cover weakened binding; strength is not graded here.

Target: T1, endogenous STAT1 of HeLa cells (human (endogenous in HeLa)), P42224
T1 chain: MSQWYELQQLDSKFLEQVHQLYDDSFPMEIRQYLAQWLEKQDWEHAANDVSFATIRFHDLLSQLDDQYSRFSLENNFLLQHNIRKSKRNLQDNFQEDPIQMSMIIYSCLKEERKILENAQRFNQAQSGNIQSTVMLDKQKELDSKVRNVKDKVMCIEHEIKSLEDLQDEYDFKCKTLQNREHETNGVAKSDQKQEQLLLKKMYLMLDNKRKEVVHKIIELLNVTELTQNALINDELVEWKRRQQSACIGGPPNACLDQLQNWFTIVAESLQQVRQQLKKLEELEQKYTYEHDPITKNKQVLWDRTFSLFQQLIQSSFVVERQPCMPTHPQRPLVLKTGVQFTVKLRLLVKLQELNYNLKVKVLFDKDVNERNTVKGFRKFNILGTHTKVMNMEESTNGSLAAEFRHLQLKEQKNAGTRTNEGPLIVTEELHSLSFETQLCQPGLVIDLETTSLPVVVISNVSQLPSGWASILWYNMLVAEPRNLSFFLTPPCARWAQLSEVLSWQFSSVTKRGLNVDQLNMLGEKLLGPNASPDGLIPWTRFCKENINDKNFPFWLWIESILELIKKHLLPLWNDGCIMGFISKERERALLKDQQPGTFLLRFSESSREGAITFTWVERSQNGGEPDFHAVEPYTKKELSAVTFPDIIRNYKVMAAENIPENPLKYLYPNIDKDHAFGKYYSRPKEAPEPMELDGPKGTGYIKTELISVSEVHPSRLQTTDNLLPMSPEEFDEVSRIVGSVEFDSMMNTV
Assay: native gel or EMSA; cell extracts of IFNγ-prestimulated, staurosporine-treated HeLa cells expressing STAT1-GFP variants beside endogenous STAT1; [33P]-labelled M67 duplex oligonucleotide (single GAS site); 4% native acrylamide gel at 4°C; dimers seen as DNA-bound complexes, the heterodimer as a band between GFP-tagged and untagged homodimers; supershift with anti-STAT1 C-24
Conditions: remark: other sources report otherwise

- binding: binds
B1: endogenous STAT1 of HeLa cells, P42224 1-750 (protein)
chain: T1 chain
